This is one part of the list. Further columns of the screen follow, without active or inactive calls. The list favours compounds with an active or inconclusive main result. The note in brackets gives the kind of curve behind each potency; many fits are weak.
Assay: qHTS Assay for Lipid Storage Modulators in Drosophila S3 Cells;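 as to cell number change: cells counted by Cell Tracker Red CMTPX staining in the red channel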
Conditions: BODIPY lipid droplet fluorescence, 18-24 h; for cell number change: measured here: cell count max response, cells fed with added oleic acid
Summary of the method: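 Drosophila S3 cells loaded with oleic acid (400 uM, as added) and compounds at several concentrations; lipid droplets imaged by 488-nm laser-scanning cytometry, 500–530 nm intensity and object ratio to cell channel. Percent activity normalized to 20 uM Triacsin C.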

[1] = measured here: lipid fluorescence (Fed channel) AC50, cells fed with added oleic acid
[2] = measured here: cell number channel AC50, cells fed with added oleic acid

| Compound | cell number change [%] | AC50 [1] | AC50 [2] |
| --- | --- | --- | --- |
| COc1ccc(-c2noc(C3CCCN(S(=O)(=O)c4cccc(Cl)c4C)C3)n2)cc1OC (stereo not drawn) | -28.9 | 16.4 µM [falling, single point] |  |
| COc1cccc2cc(C(=O)c3ccccc3)oc12 | 41.2 | 35.5 µM [rising, partial curve] | 35.5 µM [rising, single point] |
| COc1cc([N+](=O)[O-])ccc1NC(=O)Nc1cnccn1 | 30.9 |  | 12.6 µM [rising, partial curve] |
| O=C(CCl)Nc1cc(SCC(O)CO)cc([N+](=O)[O-])c1 (stereo not drawn) | -14.3 | 29.1 µM [falling, single point] | 5.17 µM [falling, single point] |
| CCn1c(SCC(=O)NCc2ccccc2)nc2c(c1=O)SC(C)C2 (stereo not drawn) |  | 2.91 µM [rising, single point] | 2.91 µM [rising, single point] |
| Cc1ccc2nc3sc(C(=O)N4CCOCC4)c(N)c3cc2c1 | -7.56 | 6.51 µM [falling, single point] |  |
| COc1ccc(Sc2ccc(/C=C3\C(=O)NN(c4ccccc4)C3=O)o2)cc1 | -6.61 | 25.9 µM [falling, partial curve] |  |
| CCCCN(C)C(=O)Cn1c(=O)oc2cc(S(=O)(=O)N3CC(C)CC(C)C3)ccc21 (stereo not drawn) | 17.4 |  |  |
| COc1ccc(C(CNc2ncnc3sccc23)N(C)C)cc1OC (stereo not drawn) | -30.3 |  | 13 µM [falling, single point] |
| Cc1cccc(C(=O)N2CCCN(C(=O)c3cccc(C)c3)CC2)c1 |  | 6.51 µM [rising, single point] | 6.51 µM [rising, single point] |
| CC(C)CN(C(=O)CC1OC(=O)c2ccccc21)c1c(N)n(Cc2ccccc2)c(=O)[nH]c1=O (stereo not drawn) | 8 |  |  |
| COC(=O)c1c(C)[nH]c(C(=O)NCCc2ccc(S(N)(=O)=O)cc2)c1C | 26.1 | 29.1 µM [rising, single point] |  |
| O=C(NCCN1CCOCC1)C(=O)NCC1OCCN1S(=O)(=O)c1cc(F)ccc1F (stereo not drawn) |  | 1.58 µM [rising, partial curve, poor fit] |  |
| Cc1ccccc1N1CCN(C2CCCN(C(=O)CCN3CCCO3)C2)CC1 (stereo not drawn) | 12.9 | 2.91 µM [falling, full curve] |  |
| O=C(Cn1c(=O)oc2cc(S(=O)(=O)N3CCCCCC3)ccc21)NC1CCCCC1 | -2.52 | 0.13 µM [rising, full curve, poor fit] |  |
| CCOC(=O)C1CCN(CC(O)COc2ccc(C(=O)CC)cc2)CC1 (stereo not drawn) | -9.73 | 6.51 µM [falling, single point] | 0.13 µM [falling, full curve, poor fit] |
| CCc1c(C(=O)NNC(=O)Nc2ccc3c(c2)OCO3)csc1C | 18.2 |  |  |
| Cc1ccc(NC(=O)c2cc3ccccc3o2)cc1 |  | 6.51 µM [falling, single point] |  |
| Cc1ccc(Nc2nc(NCC3CCCO3)nc(N)c2[N+](=O)[O-])cc1 (stereo not drawn) | 2.56 | 5.8 µM [rising, single point] |  |
| CCc1nc(Nc2ccc(OC)cc2OC)c2oc3ccccc3c2n1 | -47.8 |  | 16.4 µM [falling, single point] |

| Compound | cell number change [%] | AC50 [1] | AC50 [2] |
| --- | --- | --- | --- |
| CCOc1ncccc1C(=O)Nc1nc(C(C)(C)C)cs1 | -30.1 | 29.1 µM [falling, single point] | 18.4 µM [falling, single point] |
| CCC1=NN2C(=N)/C(=C\c3ccc(OCCOc4ccc(NC(C)=O)cc4)cc3)C(=O)N=C2S1 | 28.4 |  |  |
| COc1ccccc1NC(=O)Nc1ccc2c(c1)CCC2 | -12.7 | 18.4 µM [falling, single point] |  |
| CCc1cc2c(=O)[nH]c(N3CCCC3)nc2s1 | 3.81 | 32.6 µM [rising, single point] |  |
| Cc1ccnc(N2CCN(C(=O)CSc3nc4ccccc4nc3N3CCC(C)CC3)CC2)c1 | -31.5 |  | 29.1 µM [falling, single point] |
| CCOC(=O)N1CCN(CCC(=O)c2ccc(Cl)cc2)CC1 | -194 | 29.1 µM [falling, single point] | 29.1 µM [falling, single point] |
| N=C(N)c1ccc(O)cc1 | 0.959 | 0.651 µM [falling, single point] |  |
| COc1ccc(C(CNC(=O)c2ccc(NS(=O)(=O)c3ccc(F)cc3)cc2)N2CCOCC2)cc1 (stereo not drawn) | -10.7 | 7.94 µM [falling, partial curve] |  |
| N=c1n(CCN2CCCC2)c2ccccc2n1CC(O)c1ccco1 (stereo not drawn) |  | 20.6 µM [falling, partial curve, poor fit] |  |
| COc1ccc(/C=N/OCC(=O)Nc2ccc3c(c2)OCO3)c(OC)c1 |  |  | 5.8 µM [rising, single point] |
| CC(=O)c1cccc(N(C(=O)c2ccco2)C(C(=O)NC2CCCCC2)c2ccc(C)o2)c1 (stereo not drawn) | -7.92 |  |  |
| O=C(COC(=O)CCCc1nc2ccccc2s1)NC(=O)NCc1ccco1 | -13.3 | 2.91 µM [falling, full curve] |  |
| CCOC(=O)c1c(C)n(C)c2ccc(OCC(N)=O)cc12 |  | 0.206 µM [rising, full curve] |  |
| Cc1ccc(S(=O)(=O)CC(=O)Nc2sc(C)c(C)c2C(N)=O)cc1 | 62.8 | 0.326 µM [rising, full curve, poor fit] | 0.058 µM [rising, full curve] |
| Cc1cc(Cl)ccc1OCCCC(=O)N1CCOCC1 | 32 | 6.51 µM [rising, partial curve] | 29.1 µM [rising, single point] |
| O=C(NCCN1CCCCCC1)C1CCC(CNS(=O)(=O)c2cccc3cccnc23)CC1 (stereo not drawn) | -51 | 18.4 µM [falling, partial curve] | 1.16 µM [falling, full curve] |
| CS(=O)(=O)N(CC(=O)Nc1c(F)cccc1F)c1ccc(C23CC4CC(CC(C4)C2)C3)cc1 | -48.2 | 5.17 µM [falling, full curve, poor fit] | 14.6 µM [falling, partial curve, poor fit] |
| CCOC(=O)c1nc(Nc2cc(C)cc(C)c2)c2ccccc2n1 | 16.2 | 1.46 µM [rising, full curve, poor fit] |  |
| CC(=O)c1ccc(NC(=O)C2(S(=O)(=O)c3ccccc3)CC2)cc1 | -28.2 |  |  |
| Cc1ccc(NC(=O)COC(=O)CCCC2=NS(=O)(=O)c3ccccc3N2)cc1C |  | 10.3 µM [rising, partial curve, poor fit] |  |

| Compound | cell number change [%] | AC50 [1] | AC50 [2] |
| --- | --- | --- | --- |
| Cc1cccc(C(=O)NC2CCN(S(=O)(=O)c3ccccc3F)CC2)c1 | -44.6 | 29.1 µM [falling, single point] | 8.2 µM [falling, partial curve] |
| Cc1cc(C)n(S(=O)(=O)c2ccc3oc(=O)ccc3c2)n1 | -11.4 |  |  |
| CCCC(=O)Nc1ccc(S(=O)(=O)Nc2cc(C)nc(C)n2)cc1 | -4.84 |  |  |
| CC1CCC(NC(=O)c2ccc(CNc3c(NC4CCCCC4)c(=O)c3=O)cc2)CC1 (stereo not drawn) | -30.7 |  | 16.4 µM [falling, single point] |
| N=c1n(CC(=O)O)c2ccccc2n1Cc1ccccc1Cl | 2.62 | 0.461 µM [falling, full curve] |  |
| CC1C/C(=N\NC(=S)NC(C)C)CC(C)(C)C1 (stereo not drawn) | 40.9 | 1.3 µM [rising, partial curve] | 0.92 µM [rising, full curve] |
| CCNC(=S)N(Cc1ccco1)Cc1cc2cc(OCC)ccc2[nH]c1=O | -43.7 | 20.6 µM [falling, single point] | 23.1 µM [falling, single point] |
| O=[N+]([O-])c1ccc(CSc2ccc(-c3ccccn3)nn2)cc1 | 4.46 |  |  |
| COc1ccccc1CC(=O)N1CCN(S(=O)(=O)c2ccccc2)CC1 | 21 | 0.13 µM [falling, full curve, poor fit] |  |
| Cc1ccc(-n2c(-c3ccncc3)nnc2-c2ccco2)cc1 | 1.8 | 1.16 µM [rising, full curve] |  |
| Cc1cc(C)c(S(=O)(=O)n2ccc(-c3ccc(OCCN(C)c4ccccn4)cc3)n2)c(C)c1 | 25.9 | 32.6 µM [rising, partial curve, poor fit] |  |
| CCOC(=O)c1cc(=O)n2[nH]c(-c3ccc(C)cc3)cc2n1 | -23 | 29.1 µM [falling, single point] |  |
| O=C(NCC1CCCO1)c1ccc2c(=O)n(Cc3cccc(Br)c3)c(=S)[nH]c2c1 (stereo not drawn) |  |  | 5.8 µM [rising, partial curve, poor fit] |
| COc1ccc(Cn2nnnc2C(c2cccs2)N2CCOCC2)cc1 (stereo not drawn) | 3.55 | 1.16 µM [rising, single point] |  |
| Cn1cc(/C=N/NC(=O)COc2ccccc2[N+](=O)[O-])c2ccccc21 | 11.3 |  |  |
| Cc1ccc(OCC(=O)NNC(=O)Cn2nnc(-c3ccccc3)n2)cc1 | -9.86 | 0.517 µM [falling, partial curve, poor fit] |  |
| CSCCC(C(=O)NC1=NCCS1)N1C(=O)c2ccccc2C1=O (stereo not drawn) | 4.87 |  |  |
| CC(C)C(=O)NC(=S)/C=C1/N(C)c2ccccc2C1(C)C | -50.3 |  |  |
| Cc1cccn2c(=O)c3cc(C(=O)N4CC(C)CC(C)C4)sc3nc12 (stereo not drawn) | -13.5 | 29.1 µM [rising, single point] |  |
| COc1ccc2c(c1)-c1c(sn(-c3ccc(OC)c(OC)c3)c1=S)C(C)(C)N2 | -64.5 | 16.4 µM [falling, partial curve] |  |

Ordered by count of non-hydrogen atoms (low to high): some entries from above.

| Compound | cell number change [%] | AC50 [1] | AC50 [2] |
| --- | --- | --- | --- |
| Cc1cc(Cl)ccc1OCCCC(=O)N1CCOCC1 | 32 | 6.51 µM [rising, partial curve] | 29.1 µM [rising, single point] |
| Cc1ccc(S(=O)(=O)CC(=O)Nc2sc(C)c(C)c2C(N)=O)cc1 | 62.8 | 0.326 µM [rising, full curve, poor fit] | 0.058 µM [rising, full curve] |
| Cc1cccc(C(=O)N2CCCN(C(=O)c3cccc(C)c3)CC2)c1 |  | 6.51 µM [rising, single point] | 6.51 µM [rising, single point] |
| O=C(NCCN1CCCCCC1)C1CCC(CNS(=O)(=O)c2cccc3cccnc23)CC1 (stereo not drawn) | -51 | 18.4 µM [falling, partial curve] | 1.16 µM [falling, full curve] |
| Cc1cc(C)c(S(=O)(=O)n2ccc(-c3ccc(OCCN(C)c4ccccn4)cc3)n2)c(C)c1 | 25.9 | 32.6 µM [rising, partial curve, poor fit] |  |
